Experimental data reported in doi:10.1101/2025.08.21.671446 (bioRxiv, 2025).
These are yes or no findings as the source states them, for the method shown. Tags and fused reporters may be left off the sequences shown.

Target: MoyR (Rv0792c), GntR family (HutC subfamily) monooxygenase regulator of Mycobacterium tuberculosis (Mycobacterium tuberculosis H37Rv) (UniProt O86331)
Assay: dynamic light scattering

B1: MoyR (Rv0792c), GntR family (HutC subfamily) monooxygenase regulator of Mycobacterium tuberculosis (natural protein)
chain: MTSVKLDLDAADLRISRGSVPASTQLAEALKAQIIQQRLPRGGRLPSERELIDRSGLSRVTVRAAVGMLQRQGWLVRRQGLGTFVADPVEQELSCGVRTITEVLLSCGVTPQVDVLSHQTGPAPQRISETLGLVEVLCIRRRIRTGDQPLALVTAYLPPGVGPAVEPLLSGSADTETTYAMWERRLGVRIAQATHEIHAAGASPDVADALGLAVGSPVLVVDRTSYTNDGKPLEVVVFHHRPERYQFSVTLPRTLPGSGAGIIEKRDFA
Q: B1 was tested. Which binding did it give?
A: no binding (condition: at pH 5.5)
